Measured values as given in patent publication US20090286722A1 (priority 2005, published 2009).
For some assays here: At least one compound was matched to its structure with a doubt left. Some results were stated once for a whole list of compounds, not compound by compound.

What was measured:
BRIN-BD11 cells [1] = assay: Acute insulin release from clonal pancreatic BRIN-BD11 cells; format: cell-based; details: 10^-13 to 10^-6 M peptide, 20 minutes
BRIN-BD11 cells [2] = assay: Insulin release from BRIN-BD11 cells, GIP alone and combined with antidiabetic drugs; format: cell-based; details: 5.6 mM glucose, 20 minutes; GIP 10 nM, drugs 25-200 μM
Description: Acute insulin-release studies were carried out using clonal pancreatic BRIN-BD11 cells, whose origin, characteristics and secretory responsiveness have been outlined in detail elsewhere (Irwin, N. et al., 2005, Biol. Chem. (In Press)). BRIN-BD11 cells were seeded into 24-multiwell plates at a density of 10^5 cells per well and allowed to attach overnight at 37° C.

Compound | insulin secretion stimulated compared to 5.6 mM glucose control (BRIN-BD11 cells [1]) | insulin secretion from BRIN-BD11 cells, agent alone (BRIN-BD11 cells [2])
CC[C@H](C)[C@H](NC(=O)[C@H](CO)NC(=O)[C@H](Cc1ccc(O)cc1)NC(=O)[C@H](CC(=O)O)NC(=O)[C@H](CO)NC(=O)[C@@H](NC(=O)[C@H](Cc1ccccc1)NC(=O)[C@@H](NC(=O)CNC(=O)[C@H](CCC(=O)O)NC(=O)[C@H](C)NC(=O)[C@@H](N)Cc1ccc(O)cc1)[C@@H](C)O)[C@@H](C)CC)C(=O)N[C@@H](C)C(=O)N[C@@H](CCSC)C(=O)N[C@@H](CC(=O)O)C(=O)N[C@@H](CCCCN)C(=O)N[C@H](C(=O)N[C@@H](Cc1c[nH]cn1)C(=O)N[C@@H](CCC(N)=O)C(=O)N[C@@H](CCC(N)=O)C(=O)N[C@@H](CC(=O)O)C(=O)N[C@@H](Cc1ccccc1)C(=O)N[C@H](C(=O)N[C@@H](CC(N)=O)C(=O)N[C@@H](Cc1c[nH]c2ccccc12)C(=O)N[C@@H](CC(C)C)C(=O)N[C@@H](CC(C)C)C(=O)N[C@@H](C)C(=O)N[C@@H](CCC(N)=O)C(=O)N[C@@H](CCCCN)C(=O)NCC(=O)N[C@@H](CCCCN)C(=O)N[C@@H](CCCCN)C(=O)N[C@@H](CC(N)=O)C(=O)N[C@@H](CC(=O)O)C(=O)N[C@@H](Cc1c[nH]c2ccccc12)C(=O)N[C@@H](CCCCN)C(=O)N[C@@H](Cc1c[nH]cn1)C(=O)N[C@@H](CC(N)=O)C(=O)N[C@H](C(=O)N[C@H](C(=O)N[C@@H](CCC(N)=O)C(=O)O)[C@@H](C)O)[C@@H](C)CC)C(C)C)[C@@H](C)CC [Native GIP, reference compound] | 1.1- to 2.5 fold | –
Cc1c(C)c2c(c(C)c1O)CCC(C)(COc1ccc(CC3SC(=O)NC3=O)cc1)O2 (centres unmarked) [troglitazone] | – | stimulated insulin secretion
